These results are taken from patent US11000555B2, “Method for preparing a limax compound and therapeutic use thereof” (GUANGXI JIUFU BIOTECHNOLOGY CO., LTD, priority 2017, dated 2021).

The subject of data set [1] is mice. As to the kind of experiment: Psychological dependence test: conditioned place preference test of mice. From the text: A conditioned place preference box was composed of black and white cuboids (30 cm×15 cm×15 cm), a movable partition plate is arranged in the middle of the box body to divide the box into two cuboids of the same volume, and the rat and mice can freely move from one cuboid to another when the partition plate is removed. Inner surfaces of one cuboid of the box body except the glass panel is painted black, the bottom plate is made to be a rough surface by using a soft blanket, the other cuboid of the box body except the glass surface is painted white, the bottom plate is made to be a smooth surface, and the whole experimental box has visual and tactile cues.
Mice were tested for natural preference one day prior to dosing to eliminate mice with significant preference on one side of the box and to exclude the effects of unconditioned place preference on the experimental results.
Each group of animals was administered twice daily at an interval of 8 hours (8:00, 16:00). […] The partition plate of the preferred cuboid was removed, the mice were placed in the middle of the box one by one and observed for 15 minutes, and the duration of each of the mice staying in each cuboid was recorded on the basis of the positions of their heads.

In data set [2] the test system is mice. The data set is described as follows: Physical dependence test: induced withdrawal test for the mice. To be noted: sc morphine hydrochloride. On the procedure:
The daily doses were 25, 50, 75, 100, 125, 150 mg/kg according to the dose increasing principle, increased day by day, reached 150 mg/kg on day 6 which was adopted the same on day 7. The compound group was administered (ig) twice daily (8:00 am, 8:00 pm) at daily doses of 0.6, 1.2, 1.8, 2.4, 3.0, 3.6 g/kg. The dose increased every day from 0.6 g/kg to 3.6 g/kg on day 6 which was adopted the same on day 7. The negative control group was given (ig) the same volume of vegetable oil every day at the same time and for the same times as the compound group. On day 7, naloxone (8 mg/kg, ip) was given to each group of mice to induce withdrawal. The jump reaction within 30 min and weight change one hour before and after inducement were observed. Weight loss value=weight before inducement−weight after inducement.

Marks after values point to notes of the source that are not given here.

For `CN1CC[C@]23c4c5ccc(O)c4O[C@H]2[C@@H](O)C=C[C@H]3[C@H]1C5.Cl` [Morphine, Morphine hydrochloride], the “Duration of mice staying in companion box” value is recorded as 578.6 ± 136.83**^Δ s with mice [1] (After administration, morphine 9 mg/kg sc, 6 days training, 15 min observation) and 362.5 ± 67.51 s in the data set with mice [1] (Before administration, Morphine control group). The “Behaviour of mice after administration” value with mice [2] is “all the mice showed tail erecting reaction and excitatory movement”.
